PubChem BioAssay AID652259 | Drosophila RNAi Screening Center – 2013
The screen tested about 22,000 reagents; this is an unselected part of those with a known target gene and a result. Of all reagents, 233 (1.1%) were called active. 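Light values are raw, unnormalised plate reads; the ratio scores behind the reporter calls were not deposited.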 Unmarked entries are inactive. Not stated in the record: the amount of reagent, the time to read-out, the dose of the treatment.

Aim: 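Genome-wide hunt for genes that control Wingless pathway activity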 (primary screen)
System: Drosophila clone 8 imaginal disc epithelial cells
Reagents: long dsRNA against Drosophila genes
Challenge: pathway stimulated by co-transfected Wingless expression plasmid
Read-out: 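Dual luciferase reads per well after Wingless plasmid stimulation: reporter firefly light and Renilla control light; activity is firefly divided by Renilla, a ratio not deposited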
Scale: firefly reporter light: higher = more Wg reporter light, before normalisation; Renilla control light: higher = more transfected or surviving cells
Call rule: 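a knock-down is a candidate when at least two out of four statistical tests show it departing from its plate mean; one test alone signals a weak candidate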
Meaning of the calls: active = candidate regulator (raises or lowers reporter); inactive = not a candidate

gene knocked down,amplicon,"reporter change call, replicate 1","firefly reporter light, replicate 1","firefly reporter light, replicate 2","Renilla control light, replicate 1","Renilla control light, replicate 2"
Ir56c (Ionotropic receptor 56c),DRSC06544,,5962,,2006,
Gpa2 (Glycoprotein hormone alpha 2),DRSC21071,,12393,,7184,
bchs (blue cheese),DRSC03126,,1322,7133,652,1067
Best1 (Bestrophin 1),DRSC16909,,18921,6.81e5,4333,3.03e5
CG34136,DRSC01833,,16103,,19202,
Drs (Drosomycin),DRSC08657,,8416,,3941,
ec (echinus),DRSC17285,,2214,,1027,
ec (echinus),DRSC17286,,1520,,1501,
ec (echinus),DRSC18658,Wg reporter activity raised,43913,,8036,
Bgb,DRSC08148,,12738,,3314,
Flo1 (Flotillin 1),DRSC07427,,14055,,3264,
CG34171,DRSC01637,,22038,,10117,
Osi19 (Osiris 19),DRSC12569,,12040,,4162,
RpS11 (Ribosomal protein S11),DRSC07289,,9917,,3765,
RpS11 (Ribosomal protein S11),DRSC22700,,5.52e5,6.07e5,2.12e5,1.83e5
acj6 (abnormal chemosensory jump 6),DRSC20304,,3034,8150,1314,3115
CG13050,DRSC09931,,9671,,4163,
CR33318 (pseudo),DRSC22949,,5.14e5,5.16e5,2.13e5,1.56e5
CG1946,DRSC06804,,3360,8484,960,3048
NTPase,DRSC00761,,8557,,3261,
CG13437,DRSC06397,,5276,,2437,
CG31460,DRSC14370,,5765,,2152,
CG14984,DRSC08442,,7621,,2733,
CG17199,DRSC15192,,13882,,3980,
cass (cassowary),DRSC01850,,6018,,2768,
CG34370,DRSC03913,,34400,,11104,
CG34370,DRSC04142,,1861,7542,704,2968
CG34370,DRSC04143,,2544,7698,810,2689
CG34370,DRSC04144,,3024,10002,586,1985
Cp36 (Chorion protein 36),DRSC18452,,17147,,8614,

Limited to “Renilla control light, replicate 1”, for 12 of the entries above:
CG34136 [DRSC01833]	19202
Drs (Drosomycin) [DRSC08657]	3941
ec (echinus) [DRSC17285]	1027
ec (echinus) [DRSC17286]	1501
ec (echinus) [DRSC18658]	8036
Bgb [DRSC08148]	3314
Flo1 (Flotillin 1) [DRSC07427]	3264
CG34171 [DRSC01637]	10117
Osi19 (Osiris 19) [DRSC12569]	4162
RpS11 (Ribosomal protein S11) [DRSC07289]	3765
RpS11 (Ribosomal protein S11) [DRSC22700]	2.12e5
acj6 (abnormal chemosensory jump 6) [DRSC20304]	1314

Further results follow:
gene knocked down,amplicon,"reporter change call, replicate 1","firefly reporter light, replicate 1","firefly reporter light, replicate 2","Renilla control light, replicate 1","Renilla control light, replicate 2"
l(2)k05819 (lethal (2) k05819),DRSC00826,,13749,,4732,
Alms1a (Alstrom syndrome 1a),DRSC18558,,16570,,7813,
CG11550,DRSC14326,,13776,,12007,
scramb1 (scramblase 1),DRSC09724,,7603,,2748,
scramb1 (scramblase 1),DRSC10667,,8773,,3120,
scramb1 (scramblase 1),DRSC10668,,10310,,3005,
CG30096,DRSC21744,,2.49e5,3.89e5,1.86e5,1.89e5
Prp19 (Pre-RNA processing factor 19),DRSC07434,,6096,,2001,
lola (longitudinals lacking),DRSC05220,,15577,,13752,
lola (longitudinals lacking),DRSC05221,,18900,,20453,
lola (longitudinals lacking),DRSC05222,,22029,,18018,
lola (longitudinals lacking),DRSC05223,,25617,,12930,
lola (longitudinals lacking),DRSC05224,,22924,,12508,
lola (longitudinals lacking),DRSC06738,,5738,,1305,
lola (longitudinals lacking),DRSC06739,,2429,6961,534,1616
lola (longitudinals lacking),DRSC06740,,9763,,2278,
lola (longitudinals lacking),DRSC06741,,1493,5525,615,2408
lola (longitudinals lacking),DRSC06742,,2853,3520,310,800
lola (longitudinals lacking),DRSC07646,,13658,,4631,
lola (longitudinals lacking),DRSC07647,,3556,6632,816,3030
CycT (Cyclin T),DRSC11124,,1339,,664,
CG31928,DRSC00293,,12364,,5821,
CG17752,DRSC15262,,16950,,3482,
Lint-1 (l(3)mbt interacting protein 1),DRSC19822,,2192,5080,1031,2616
alt (aluminum tubes),DRSC15315,,6992,11272,924,1453
CG7214,DRSC03028,,16228,5.90e5,7425,1.78e5
CG7214,DRSC21869,,9.76e5,5.68e5,4.17e5,4.02e5
JIL-1 (JIL-1 kinase),DRSC11200,,5600,,3222,
"Lamtor5 (Late endosomal/lysosomal adaptor, MAPK and MTOR activator 5)",DRSC18491,,26066,,16181,
Pph13 (PvuII-PstI homology 13),DRSC00775,,9597,,2626,
CG44085,DRSC02922,Wg reporter activity raised (active),3440,11762,501,2555
CG44085,DRSC02929,,2737,10208,1465,4876
Pop2,DRSC10537,,7633,,2274,
sit (stuck in traffic),DRSC15760,,11180,,6400,
tsl (torso-like),DRSC17090,,33040,,5431,
Bap60 (Brahma associated protein 60kD),DRSC19337,,3256,10960,485,1597
CG5478,DRSC15814,,20082,,4583,
CG1789,DRSC18140,,1665,6066,920,1955
zye,DRSC11784,,11435,,4806,
Hpf1 (Histone PARylation factor 1),DRSC12202,,7442,,2560,
CG33341,DRSC22887,,6.01e5,4.94e5,2.34e5,62139
CG11562,DRSC00316,,3334,6725,1168,2473
nsl1 (non-specific lethal 1),DRSC15625,Wg reporter activity raised (active),3729,6358,122,200
